1 molecule from patent publication US20160130324A1 can be followed below.

These are yes or no findings as the source states them, for the method shown. A result given as binding can be weak or reduced; the word gives no strength.

For the assay, the target named is biotin-C1s. In words: functional ELISA: complex with biotin-C1s captured on streptavidin plate, detected with anti-C1-INH-HRP; plasma-derived C1-INH as positive control and reference. For orientation: ELISA stands for enzyme-linked immunosorbent assay.

B1: plasma-derived C1-INH (protein)
chain: NPNATSSSSQDPESLQDRGEGKVATTVISKMLFVEPILEVSSLPTTNSTTNSATKITANTTDEPTTQPTTEPTTQPTIQPTQPTTQLPTDSPTQPTTGSFCPGPVTLCSDLESHSTEAVLGDALVDFSLKLYHAFSAMKKVETNMAFSPFSIASLLTQVLLGAGENTKTNLESILSYPKDFTCVHQALKGFTTKGVTSVSQIFHSPDLAIRDTFVNASRTLYSSSPRVLSNNSDANLELINTWVAKNTNNKISRLLDSLPSDTRLVLLNAIYLSAKWKTTFDPKKTRMEPFHFKNSVIKVPMMNSKKYPVAHFIDQTLKAKVGQLQLSHNLSLVILVPQNLKHRLEDMEQALSPSVFKAIMEKLEMSKFQPTLLTLPRIKVTTSQDMLSIMEKLEFFDFSYDLNLCGLTEDPDLQVSAMQHQTVLELTETGVEAAAASAISVARTLLVFEVQQPFLFVLWDQQHKFPVFMGRVYDPRA
For B1, the binding result is listed as “binds”.
